For assay [1], the target named is T1, Flag-TAB2 (full-length TAK1-binding protein 2) (UniProt Q9NYJ8).
T1 sequence: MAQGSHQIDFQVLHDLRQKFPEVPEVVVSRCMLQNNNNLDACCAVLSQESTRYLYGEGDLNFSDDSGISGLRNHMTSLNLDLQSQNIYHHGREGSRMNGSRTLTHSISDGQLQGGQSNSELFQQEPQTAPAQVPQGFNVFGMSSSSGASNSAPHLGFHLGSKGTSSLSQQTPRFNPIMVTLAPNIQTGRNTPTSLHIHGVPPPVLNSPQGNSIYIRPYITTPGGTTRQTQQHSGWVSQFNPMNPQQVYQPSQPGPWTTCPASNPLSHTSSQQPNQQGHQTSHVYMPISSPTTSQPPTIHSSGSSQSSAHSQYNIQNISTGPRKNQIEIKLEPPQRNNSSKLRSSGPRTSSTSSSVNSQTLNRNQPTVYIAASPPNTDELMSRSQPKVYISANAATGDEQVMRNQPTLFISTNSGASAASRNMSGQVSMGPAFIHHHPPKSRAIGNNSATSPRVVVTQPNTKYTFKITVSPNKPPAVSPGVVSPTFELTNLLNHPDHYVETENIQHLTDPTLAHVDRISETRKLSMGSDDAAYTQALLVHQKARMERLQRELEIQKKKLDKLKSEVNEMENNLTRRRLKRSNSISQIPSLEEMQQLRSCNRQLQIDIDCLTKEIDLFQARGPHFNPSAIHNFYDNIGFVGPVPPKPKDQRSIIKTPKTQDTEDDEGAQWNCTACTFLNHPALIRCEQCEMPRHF
The assay can be described thus: co-IP; 293T cells co-transfected with tagged proteins; lysates immunoprecipitated with tag antibodies and protein G beads at 4 °C overnight, washed with IP buffer (50 mM Tris-HCl pH 7.4, 150 mM NaCl, 1% Nonidet P40), immunoblot; reciprocal; competition co-IP with CYPJ overexpression.

The target in assay [2] is T2, Flag-TAB3 (UniProt Q8N5C8).
T2 sequence: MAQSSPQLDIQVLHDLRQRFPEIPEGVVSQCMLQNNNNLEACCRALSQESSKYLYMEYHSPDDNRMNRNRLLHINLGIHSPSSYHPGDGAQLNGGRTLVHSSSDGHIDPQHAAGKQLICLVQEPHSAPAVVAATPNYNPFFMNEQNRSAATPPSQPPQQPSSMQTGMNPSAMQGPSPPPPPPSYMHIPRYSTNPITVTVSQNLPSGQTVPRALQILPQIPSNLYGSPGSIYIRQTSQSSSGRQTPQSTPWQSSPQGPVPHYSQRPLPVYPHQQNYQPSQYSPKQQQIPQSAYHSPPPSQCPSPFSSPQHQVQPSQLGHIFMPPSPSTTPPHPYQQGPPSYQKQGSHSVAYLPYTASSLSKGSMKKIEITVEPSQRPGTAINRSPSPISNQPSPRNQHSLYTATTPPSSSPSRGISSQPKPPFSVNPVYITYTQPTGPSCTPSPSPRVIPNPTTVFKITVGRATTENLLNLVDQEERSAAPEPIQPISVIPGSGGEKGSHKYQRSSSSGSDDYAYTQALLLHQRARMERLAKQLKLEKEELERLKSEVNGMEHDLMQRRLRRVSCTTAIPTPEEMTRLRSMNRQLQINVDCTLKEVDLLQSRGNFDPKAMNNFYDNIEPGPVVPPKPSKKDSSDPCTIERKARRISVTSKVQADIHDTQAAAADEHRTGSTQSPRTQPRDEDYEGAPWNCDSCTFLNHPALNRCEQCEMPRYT
The assay is described as above.

Assay [3] addresses Flag-TAB2 ΔCUE. Described as above.
Assay [4] has as its target Flag-TAB2 ΔNZF. The assay is described as above.
Assay [5] concerns the target Flag-TAB2 ΔCC&NZF. Described as above.
Assay [6] addresses GST-fused NZF domain of NEMO. The assay can be described thus: pull-down; GST or GST fusion proteins from E. coli on Glutathione Sepharose 4B incubated with lysates of transfected 293T cells at 4 °C overnight; washed with PBS or IP buffer; immunoblot; only the target purified.
Assay [7] concerns the target GST-TAB2-NZF (GST-fused NZF domain of TAB2). The assay is described as above.
The target of assay [8] is GST-TAB2 ΔCC&NZF. The description is as above.
Assay [9] has as its target GST-TAB3-NZF (GST-fused NZF domain of TAB3). The description is as above.
Assay [10] has as its target GST-TAB2 ΔCUE. The assay is described as above.
The target in assay [11] is GST-TAB2 ΔNZF. The description is as above.
Assay [12] deals with GST-fused NZF domain of SHARPIN. The assay can be described thus: pull-down; E. coli-expressed GST and GST-fused NZF domains with E. coli-expressed His-CYPJ; both purified.
Assay [13] concerns the target GST-TAB2-NZF (GST-fused NZF domain of TAB2). The description is as above.
In assay [14] the target is GST-TAB3-NZF (GST-fused NZF domain of TAB3). The assay is described as above.
For assay [15], the target named is GST-fused second NZF domain of HOIP. The assay is described as above.

No constants are given. Whether binding was seen depends on the method and setting. For part of these data: A result given as binding can be weak or reduced; the word gives no strength. Where a sequence is shown, tags or fusion partners need not be part of it. For part of these data: In cells and extracts the contact can be indirect.

As for “CYPJ-Δ3 (HA-tagged CYPJ with a deletion of fragment-3) (human) (domain or fragment)”, the binding result in [1] and in [2] was “no binding” throughout.

B1: HA-CYPJ (HA-tagged full-length cyclophilin J) (protein, UniProt Q9H2H8 1-161)
chain: MSVTLHTDVGDIKIEVFCERTPKTCENFLALCASNYYNGCIFHRNIKGFMVQTGDPTGTGRGGNSIWGKKFEDEYSEYLKHNVRGVVSMANNGPNTNGSQFFITYGKQPHLDMKYTVFGKVIDGLETLDELEKLPVNEKTYRPLNDVHIKDITIHANPFAQ
On to B1, for which the binding entry is listed as “binds” in [3]; “no binding” in [4]; “no binding” in [5]; “no binding” in assay [6]; “binds” in [7]; “no binding” in assay [8]. The binding result in [9] is recorded as “binds”; in assay [10], “binds”; in assay [11], “no binding”.

B2: His-CYPJ (recombinant) (protein, UniProt Q9H2H8 1-161)
chain: MSVTLHTDVGDIKIEVFCERTPKTCENFLALCASNYYNGCIFHRNIKGFMVQTGDPTGTGRGGNSIWGKKFEDEYSEYLKHNVRGVVSMANNGPNTNGSQFFITYGKQPHLDMKYTVFGKVIDGLETLDELEKLPVNEKTYRPLNDVHIKDITIHANPFAQ
For the molecule B2, the binding result in assay [12], in [13], in assay [14] and in [15] was “binds” throughout.

For the origin of these results see paper PMC6197184, “Cyclophilin J limits inflammation through the blockage of ubiquitin chain sensing” (Nature Communications, 2018).
